Results: PubChem BioAssay AID651640 (Broad Institute, 2012)
In all, about 350,000 compounds went through this assay and about 6,000 (1.7%) were called active. The shares of active, inactive and inconclusive entries below differ from those in the screen. Rule as the data show it: active = CPE inhibition above about 20% (passing the limit was not always enough); inconclusive = no clear call, values can overlap the other calls; tested in BHK-21 cells.

Assay: protection of cells from dengue 2 killing – plate reader, single concentration, primary screen (AID 651640);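 also: 0% = median of neutral control wells and 100% = median of positive control wells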
Settings: DENV2-infected cells, cytopathic effect rescue, at 9.99 µM, hits give high values

SMILES | CPE inhibition
CCN(CC)CCn1c(NCc2ccc3c(c2)OCO3)nc2ccccc21 | inconclusive: 41.8%
C[C@@H]1CN([C@@H](C)CO)C(=O)Cc2cc(NC(=O)Nc3ccc4c(c3)OCO4)ccc2O[C@H]1CN(C)C(=O)Nc1ccc(F)cc1 | active: 45.3%
COC(=O)Nc1ccc2ncn(C)c(=O)c2c1 | inconclusive: 35.9%
CC(O)CNc1nc2sc3c(c2c(=O)n1Cc1ccco1)CCCCC3 (stereo unspecified) | active: 28.6%
CNC(=O)C[C@@H]1CC[C@H]2[C@@H](COc3ccc(NC(=O)C(C)C)cc3C(=O)N2C)O1 | inconclusive: 34.3%
CC(C)CC(N)c1csc(NC(=O)Nc2ccccc2-c2ccccc2)n1 (stereo unspecified) | inconclusive: 20.1%
Cc1ccccc1NC(=O)Cc1nc(COC(=O)COc2ccc(C(C)(C)C)cc2)cs1 | inconclusive: 22%
CC(=O)Nc1cccc(-c2ccnc3c2CC(C)(C(=O)NCc2ccco2)O3)c1 (stereo unspecified) | active: 32.1%
COc1ccc(/C=N\NC(=O)c2ccccc2Cl)cc1COc1c(F)c(F)c(F)c(F)c1F | inconclusive: 23.3%
N#CCCCc1cc2ccccc2cn1 | inactive: -10.9%
C=CCN=C1NC(CCc2ccccc2)C(C(=O)OC)=C(C)N1Cc1cccc(C(F)(F)F)c1 (stereo unspecified) | inconclusive: 20.4%
CCCCn1c(N)c(N(CCOC)C(=O)c2cccc(-n3cnnn3)c2)c(=O)[nH]c1=O | inconclusive: 26.9%
COc1ccc(C(=O)N/N=C(\C)Cn2cnc([N+](=O)[O-])n2)cc1 | inconclusive: 49.6%
COc1ccc(NC(=O)N(C)C[C@H]2OCCCC[C@H](C)Oc3ccc(NS(=O)(=O)c4ccc(Cl)cc4)cc3C(=O)N([C@@H](C)CO)C[C@@H]2C)cc1 | inconclusive: 25.6%
C[C@H](CO)N1C[C@H](C)[C@H](CN(C)Cc2ccc(Oc3ccccc3)cc2)Oc2ccc(NC(=O)CCCCCC(=O)Nc3ccccc3N)cc2CC1=O | inactive: 6.88%
O=C(NN=C1CCCC1)c1cc(Cl)cc(Cl)c1O | inactive: 1.96%
COc1cc2cc(CCCOC(=O)c3ccc(C#N)cc3)oc(=O)c2cc1OC | inconclusive: 43.9%
O=C(NCC[C@@H]1CC[C@@H](NC(=O)c2cccnc2)[C@H](CO)O1)Nc1ccc(C(F)(F)F)cc1 | inactive: -3.95%
C[C@H](CO)N1C[C@H](C)[C@H](CN(C)S(=O)(=O)c2ccccc2)Oc2ccc(NS(=O)(=O)c3ccc(F)cc3)cc2CC1=O | inactive: -7.95%
CN(C)S(=O)(=O)c1cccc(NC(=O)COC(=O)c2cc(=O)c3ccccc3o2)c1 | inconclusive: 51.6%
C[C@H]1CCCCO[C@H](CN(C)C(=O)Nc2ccccc2)[C@@H](C)CN([C@@H](C)CO)C(=O)c2cc(NC(=O)Nc3ccc(F)cc3)ccc2O1 | inactive: -1.42%

An excerpt from above in order of formula weight, ascending.
SMILES | CPE inhibition
CC(=O)Nc1cccc(-c2ccnc3c2CC(C)(C(=O)NCc2ccco2)O3)c1 (stereo unspecified) | active: 32.1%
COc1cc2cc(CCCOC(=O)c3ccc(C#N)cc3)oc(=O)c2cc1OC | inconclusive: 43.9%
C[C@H](CO)N1C[C@H](C)[C@H](CN(C)S(=O)(=O)c2ccccc2)Oc2ccc(NS(=O)(=O)c3ccc(F)cc3)cc2CC1=O | inactive: -7.95%
